Reference: PubChem BioAssay AID504774 (Drosophila RNAi Screening Center, 2011)
The deposit covers about 23,000 reagents; shown is a random part of those with a known target gene and a result. 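Values are quantile-normalised luminescence on an arbitrary scale; higher means more cells surviving MMS.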

Purpose: 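Knock-downs that shift viability of MMS-exposed cells relative to untreated ones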 (primary screen)
System: Drosophila Kc167 cells
Reagent: long dsRNA against Drosophila genes, about 0.25 µg dsRNA per well
Time to read-out: about 6 days: 3 days knock-down, then 3 days with or without MMS
Challenge: methyl methanesulphonate 0.004% (w/v) for 3 days after knock-down
Measured: 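ATP-dependent luminescence as a measure of live cells in MMS-exposed wells, quantile normalised within each plate, with replicate values also given as a mean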
Scale: mean viability with MMS and viability with MMS: higher = more surviving cells after MMS

| gene | PubChem SID | mean viability with MMS | viability with MMS, replicate 1 | viability with MMS, replicate 2 |
| --- | --- | --- | --- | --- |
| Gr22f (Gustatory receptor 22f) | SID104179868 | 3.59e6 | 4.01e6 | 4.15e6 |
| wcd (wicked) | SID104186843 | 3.52e6 | 3.99e6 | 4.00e6 |
| bard | SID104194588 | 3.56e6 | 4.08e6 | 3.98e6 |
| CG31041 | SID104193743 | 3.57e6 | 4.05e6 | 4.05e6 |
| CG43345 | SID104182956 | 3.82e6 | 4.49e6 | 4.15e6 |
| l(2)41Ab (lethal (2) 41Ab) | SID104200799 | 2.38e6 | 4.11e6 | 4.02e6 |
| kek3 (kekkon 3) | SID104183345 | 3.67e6 | 3.89e6 | 4.00e6 |
| kek3 (kekkon 3) | SID104202189 | 3.54e6 | 4.12e6 | 3.92e6 |
| CG17187 | SID104194973 | 3.59e6 | 4.04e6 | 4.06e6 |
| CG8128 | SID104199876 | 3.46e6 | 3.93e6 | 4.03e6 |
| CG7695 | SID104196081 | 3.54e6 | 3.87e6 | 4.16e6 |
| CG13071 | SID104189746 | 3.57e6 | 4.03e6 | 4.07e6 |
| PAN3 (Poly(A) specific ribonuclease subunit PAN3) | SID104187982 | 3.55e6 | 4.07e6 | 3.97e6 |
| mus304 (mutagen-sensitive 304) | SID104191164 | 3.56e6 | 4.07e6 | 4.01e6 |
| egg (eggless) | SID104183911 | 2.94e6 | 2.82e6 | 3.48e6 |
| egg (eggless) | SID104201974 | 3.86e6 | 4.53e6 | 4.03e6 |
| PHDP (Putative homeodomain protein) | SID104184427 | 3.55e6 | 4.04e6 | 4.03e6 |
| CG31997 | SID104196897 | 3.60e6 | 4.04e6 | 4.08e6 |
| Acbp5 (Acyl-CoA binding protein 5) | SID104190340 | 3.69e6 | 4.12e6 | 4.26e6 |
| CG13312 | SID104189775 | 3.42e6 | 3.90e6 | 3.84e6 |
| CG4364 | SID104182534 | 3.43e6 | 3.87e6 | 3.86e6 |
| IFT46 (Intraflagellar transport 46) | SID104182254 | 3.57e6 | 4.04e6 | 4.07e6 |
| CG32547 | SID104199055 | 3.52e6 | 3.96e6 | 4.02e6 |
| CG32547 | SID104199057 | 3.42e6 | 3.90e6 | 3.90e6 |
| CG32547 | SID104199266 | 3.48e6 | 3.98e6 | 3.90e6 |
| CG32547 | SID104199418 | 3.38e6 | 3.78e6 | 3.83e6 |
| CG3339 | SID104193613 | 3.61e6 | 4.14e6 | 4.02e6 |
| CG3339 | SID104195271 | 3.43e6 | 3.81e6 | 3.91e6 |
| CG5815 | SID104193927 | 3.60e6 | 4.16e6 | 3.99e6 |
| ebo (ellipsoid body open) | SID104198579 | 3.52e6 | 3.95e6 | 4.04e6 |
| Vps11 (Vacuolar protein sorting 11) | SID104191701 | 3.32e6 | 3.88e6 | 3.78e6 |
| Vps11 (Vacuolar protein sorting 11) | SID104201289 | 3.39e6 | 3.89e6 | 3.87e6 |
| ImpE1 (Ecdysone-inducible gene E1) | SID104190987 | 3.73e6 | 4.10e6 | 4.35e6 |
| ImpE1 (Ecdysone-inducible gene E1) | SID104190988 | 3.47e6 | 3.91e6 | 3.97e6 |
| CG13659 | SID104194452 | 3.50e6 | 3.99e6 | 3.91e6 |
| CG32462 | SID104191643 | 3.59e6 | 4.09e6 | 4.05e6 |
| CG6296 | SID104195805 | 3.64e6 | 4.19e6 | 4.04e6 |

A portion taken from the entries so far, for reference:
| gene | PubChem SID | mean viability with MMS | viability with MMS, replicate 1 | viability with MMS, replicate 2 |
| --- | --- | --- | --- | --- |
| CG3339 | SID104195271 | 3.43e6 | 3.81e6 | 3.91e6 |
| CG5815 | SID104193927 | 3.60e6 | 4.16e6 | 3.99e6 |
| ebo (ellipsoid body open) | SID104198579 | 3.52e6 | 3.95e6 | 4.04e6 |
| Vps11 (Vacuolar protein sorting 11) | SID104191701 | 3.32e6 | 3.88e6 | 3.78e6 |
| Vps11 (Vacuolar protein sorting 11) | SID104201289 | 3.39e6 | 3.89e6 | 3.87e6 |
| ImpE1 (Ecdysone-inducible gene E1) | SID104190987 | 3.73e6 | 4.10e6 | 4.35e6 |
| ImpE1 (Ecdysone-inducible gene E1) | SID104190988 | 3.47e6 | 3.91e6 | 3.97e6 |
| CG13659 | SID104194452 | 3.50e6 | 3.99e6 | 3.91e6 |
| CG32462 | SID104191643 | 3.59e6 | 4.09e6 | 4.05e6 |
| CG6296 | SID104195805 | 3.64e6 | 4.19e6 | 4.04e6 |

Additional results follow.
| gene | PubChem SID | mean viability with MMS | viability with MMS, replicate 1 | viability with MMS, replicate 2 |
| --- | --- | --- | --- | --- |
| CG13989 | SID104182113 | 3.55e6 | 3.99e6 | 4.04e6 |
| CG31226 | SID104201396 | 3.16e6 | 3.68e6 | 3.79e6 |
| CG42336 | SID104185065 | 3.49e6 | 3.90e6 | 4.04e6 |
| CG42336 | SID104186124 | 3.60e6 | 4.09e6 | 3.98e6 |
| CG42336 | SID104186125 | 3.77e6 | 3.81e6 | 3.78e6 |
| CG15160 | SID104182253 | 3.86e6 | 4.23e6 | 4.47e6 |
| Con (Connectin) | SID104188444 | 3.39e6 | 3.89e6 | 3.84e6 |
| mgr (merry-go-round) | SID104195891 | 3.58e6 | 4.05e6 | 4.05e6 |
| grnd (grindelwald) | SID104181812 | 3.26e6 | 3.60e6 | 3.80e6 |
| CG43325 | SID104183949 | 3.67e6 | 4.13e6 | 4.19e6 |
| Oct-TyrR (Octopamine-Tyramine receptor) | SID104191675 | 3.46e6 | 3.92e6 | 3.90e6 |
| bbg (big bang) | SID104190869 | 3.57e6 | 4.10e6 | 4.00e6 |
| bbg (big bang) | SID104190871 | 3.39e6 | 3.85e6 | 3.77e6 |
| Ekar (Eye-enriched kainate receptor) | SID104196953 | 3.64e6 | 4.22e6 | 4.04e6 |
| Cypl (Cyclophilin-like) | SID104188154 | 3.57e6 | 4.03e6 | 4.05e6 |
| ergic53 | SID104191181 | 3.62e6 | 4.08e6 | 4.14e6 |
| CG18327 | SID104186514 | 3.43e6 | 3.99e6 | 3.94e6 |
| CG4646 | SID104186668 | 3.56e6 | 3.95e6 | 4.05e6 |
| Ndf (Nucleosome-destabilizing factor) | SID104182567 | 3.45e6 | 3.89e6 | 3.88e6 |
| Ilp3 (Insulin-like peptide 3) | SID104189960 | 3.69e6 | 4.16e6 | 4.13e6 |
| CG34202 | SID104185699 | 3.34e6 | 3.86e6 | 3.78e6 |
| CG32628 (retired record) | SID104199197 | 3.54e6 | 3.96e6 | 4.06e6 |
| Polr2A (RNA polymerase II subunit A) | SID104200072 | 2.42e6 | 2.89e6 | 2.92e6 |
| CG5984 | SID104195722 | 3.59e6 | 4.08e6 | 4.06e6 |
| corolla | SID104199894 | 3.69e6 | 4.26e6 | 4.17e6 |
| r-l (rudimentary-like) | SID104196834 | 3.67e6 | 4.08e6 | 4.19e6 |
| r-l (rudimentary-like) | SID104202143 | 3.31e6 | 3.84e6 | 3.87e6 |
| Ugt307A1 (UDP-glycosyltransferase family 307 member A1) | SID104181930 | 3.42e6 | 3.88e6 | 3.86e6 |
| CG5742 | SID104186741 | 3.64e6 | 4.17e6 | 4.10e6 |
| dsh (dishevelled) | SID104199595 | 3.51e6 | 3.94e6 | 4.01e6 |
| Bin1 (Bicoid interacting protein 1) | SID104196635 | 3.51e6 | 4.01e6 | 3.96e6 |
| CG6511 | SID104190448 | 3.52e6 | 4.05e6 | 3.94e6 |
| Pgant2 (Polypeptide N-Acetylgalactosaminyltransferase 2) | SID104180379 | 3.67e6 | 4.13e6 | 4.13e6 |
| CG3630 | SID104198291 | 3.61e6 | 4.21e6 | 3.98e6 |
| Lim1 (LIM homeobox 1) | SID104197544 | 3.73e6 | 4.07e6 | 4.47e6 |
| Lim1 (LIM homeobox 1) | SID104198469 | 3.50e6 | 3.98e6 | 3.97e6 |
| Ugt35E2 (UDP-glycosyltransferase family 35 member E2) | SID104195875 | 3.47e6 | 3.96e6 | 3.95e6 |
| CG14718 | SID104194733 | 3.59e6 | 3.95e6 | 4.22e6 |
| mIF2 (mitochondrial translation initiation factor 2) | SID104194302 | 3.58e6 | 4.04e6 | 4.09e6 |
| Ho (Heme oxygenase) | SID104194731 | 3.63e6 | 4.05e6 | 4.20e6 |
| GstE9 (Glutathione S transferase E9) | SID104186471 | 3.53e6 | 3.94e6 | 4.07e6 |
| CG16865 | SID104181696 | 3.47e6 | 3.92e6 | 3.96e6 |
| CG14024 | SID104180660 | 3.32e6 | 3.70e6 | 3.84e6 |
| CG14024 | SID104182146 | 3.58e6 | 4.03e6 | 4.10e6 |
| CG34310 | SID104180735 | 3.64e6 | 3.96e6 | 4.29e6 |
| CG15554 | SID104194884 | 3.52e6 | 3.95e6 | 4.02e6 |
| CG5107 | SID104195508 | 3.47e6 | 3.96e6 | 3.92e6 |
| CG2767 | SID104195243 | 3.47e6 | 3.82e6 | 4.03e6 |
| CG12535 | SID104197630 | 3.48e6 | 3.92e6 | 4.00e6 |
| CG7148 | SID104191594 | 3.53e6 | 4.05e6 | 3.94e6 |
